We go through one molecule from publication PMC8308721 (Pharmaceutics, 2021).

For data set [1], the system named is female CD-1 mice. Kind of data set: Hot-plate test. It counts as in vivo, mouse. The following applies: morphine s.c. 10 mg/kg. On the procedure: Animal use and procedures were in accordance with the guidelines of The University of British Columbia animal care committee and the Canadian Council for Animal Care (CCAC, Protocol code: A17-0128, approval date: 30 August 2018). Experiments involved adult female CD-1 mice (25–30 g) housed under a 12 h light/dark cycle and had ad libitum access to rodent chow and water. Mice were allowed an acclimatization period of at least one week in the animal facility before experiments. Subcutaneous (s.c.) or intraperitoneal (i.p.) injections of drugs or vehicles were administered to animals at a volume of 10 mL/kg. […]
A commercially available hot-plate analgesia meter consisting of a round aluminum surface with (25 cm diameter) from Harvard Apparatus (Holliston, MA, USA) was used. […] Thereafter, the baseline latency of each animal was measured on the hot surface (52.0 ± 0.1 °C, 30 s cut-off time to prevent tissue damage) until a nociceptive response was induced. […] The %MPE for each animal was calculated using this equation: %MPE = (LR − BR)/(MR − BR)100%, where LR, MR, and BR represent measured, maximum (30 s), and baseline (~5 s) response time, respectively. The AUC for each animal was calculated from the %MPE time courses using this equation: AUC = (%MPE(Tp1) + %MPE(Tp2))·(Tp2 − Tp1)/2, where Tp represents the time interval between adjacent time points on the curve. […]

The conditions of data set [2]: cited from earlier work.

Molecules are shown by their SMILES.

`CN1CC[C@]23c4c5ccc(O)c4O[C@H]2[C@@H](O)C=C[C@H]3[C@H]1C5` [morphine]: in data set [1], the “Antinociception AUC” value stood at 138 ± 12 %MPE·h. Moreover, the maximum tolerated dose in data set [2] is 130 mg/kg.
